Values of other authors, collected in patent US20010039006A1, “Toxicity typing using embryoid bodies” (priority 1998, published 2001).

Details: Table 1

In the case of `O=C(O)c1cn(C2CC2)c2cc(N3CCNCC3)c(F)cc2c1=O` [ciprofloxacin], the “TOXICITIES LIVER” value is given as “ntc”.
